PubChem BioAssay AID652243 – Drosophila RNAi Screening Center | 2013
Screen: 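Fly regulators of androgen-dependent reporter output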 (primary screen). Cell system: Drosophila S2R+ cells. Knock-down reagent: long dsRNA against Drosophila genes. Timing: 72 h (48 h, then 24 h hormone). Challenge: synthetic androgen R1881 at 10 nM for 24 h. Measurement: 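Firefly light from an androgen-responsive reporter and Renilla control light per well, raw and unnormalised, for each of two replicates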. Scale: firefly reporter light: higher = more light from androgen-responsive reporter; Renilla control light: higher = more constitutive control signal (cell number, transfection). Call rule: 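Across duplicate plates, a knock-down whose log firefly/Renilla ratio shifted a set fold down or up from the GFP/LacZ control mean was a hit; the downward cut appears as both 1.5 and 3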. Meaning of the calls: active = hit: reporter lowered or raised; inactive = no hit.
The screen tested about 24,000 reagents; this is an unselected part of those that have a named target and a result. Over the whole deposit, 246 (1%) are marked active. 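Plates not normalised; calls are printed but the firefly/Renilla ratio behind them is not deposited; fold cut for lowering reported inconsistently.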 The raw values are shown without normalisation. The numbers tell different reagents against one gene apart. Not stated in the record: the amount of reagent.

target gene	reagent	firefly reporter light, replicate 1	firefly reporter light, replicate 2	Renilla control light, replicate 1	Renilla control light, replicate 2	call
wts	1	8.48e5	9.13e5	1.00e6	1.01e6	inactive
wts	2	5.91e5	4.33e5	8.54e5	5.16e5	inactive
wts	3					inactive
wts	4					inactive
Crtc	1	4.79e5	5.11e5	1.53e6	1.68e6	inactive
Crtc	2	3.30e5	3.21e5	5.85e5	4.62e5	inactive
Cyp313a5	1	1.61e5	1.92e5	2.87e6	2.80e6	inactive
MED24	1	1.16e5	1.56e5	2.14e6	1.82e6	inactive
CG14506	1	2.60e5	2.37e5	2.63e6	3.37e6	inactive
Chrac-16	1	2.32e5	2.19e5	1.74e6	2.06e6	inactive
Chrac-16	2	1.09e6	4.84e5	6.64e5	4.73e5	inactive
Klp3A	1	1.17e5	94555	1.27e6	8.96e5	inactive
Klp3A	2	9.19e5	7.30e5	1.79e6	1.41e6	inactive
CG14564	1	2.13e5	2.03e5	1.96e6	2.39e6	inactive
CG14564	2	4.95e5	8.45e5	1.28e6	1.51e6	inactive
CG13130 (retired record)	1	4.02e5	2.67e5	2.16e6	2.08e6	inactive
CG13130 (retired record)	2	8.64e5	9.56e5	1.45e6	1.56e6	inactive
FASN3	1	1.38e6	1.21e6	2.38e6	1.83e6	inactive
CG31272	1	67151	1.02e5	1.60e6	1.66e6	inactive
CG31077	1	1.17e5	1.58e5	2.04e5	3.51e5	inactive
CG31077	2	6.64e5	4.60e5	6.86e5	7.59e5	inactive
CG5532	1	3.77e5	4.89e5	3.27e6	4.30e6	inactive
CG2854	1	3.17e5	2.48e5	4.20e6	2.85e6	inactive
CG5327	1	91518	1.96e5	2.11e6	2.18e6	inactive
tbrd-1	1	1.12e5	1.55e5	1.72e6	2.03e6	inactive
CG46298	1	1.02e5	57222	1.35e6	8.03e5	inactive
CG46298	2	1.13e6	8.61e5	9.21e5	9.20e5	inactive
Dpm1	1	1.04e5	87351	8.02e5	1.58e6	inactive
Cpr78Cb	1	1.95e5	1.25e5	1.82e6	1.90e6	inactive
Cpr78Cb	2	3.96e5	2.97e5	7.82e5	4.52e5	inactive
Ser7	1	97375	54457	6.26e5	6.65e5	inactive
Ccp84Ab	1	1.25e5	1.08e5	1.75e6	1.39e6	inactive
Ccp84Ab	2	7.29e5	6.83e5	1.26e6	1.38e6	inactive
CG11456	1	32448	25605	3.33e5	2.80e5	inactive
CG7218	1	83750	52553	5.06e5	6.85e5	inactive
CG7218	2	2.40e5	2.96e5	4.27e5	7.88e5	inactive
fh	1	2.85e5	2.85e5	2.81e6	2.59e6	inactive
Osi11	1	64446	81246	1.77e6	1.43e6	inactive
CG10512	1	2.11e5	2.05e5	2.05e6	1.68e6	inactive
CG10512	2	6.28e5	6.26e5	1.79e6	1.82e6	inactive

Part of the list above, reduced to “firefly reporter light, replicate 2”.
Crtc #2 = 3.21e5
Cyp313a5 = 1.92e5
MED24 = 1.56e5
CG14506 = 2.37e5
